Measurements: patent publication EP0492247A1, “Effervescent H2 blocker formulation” (MILES INC., priority 1990, dated 1992)
At least one structure is not confirmed: it was looked up by name or label, or the drawing left a doubt.

Test system: dimiprit treated dogs with gastric fistulas
Experiment: Gastric pH in dimiprit-treated dogs with gastric fistulas
Format: in vivo
Settings: 0.3 mg/kg ranitidine without effervescent delivery system; dimiprit i.v. infusion, background pH approximately 1.5; Figure A

CNC(=C[N+](=O)[O-])NCCSCc1ccc(CN(C)C)o1 [ranitidine]
effect on gastric pH: does not affect the gastric pH
